The nature of the data set: general procedure: solution-phase peptide synthesis; HATU / diisopropylethylamine. Particulars: for conjugation yield: conjugation step.

Consider “1-(tert-butyl) 20-methyl (S, E)-4, 9, 12, 17-tetraoxo-10-(31-oxo-2, 5, 8, 11, 14, 17, 20, 23, 26, 29-decaoxa-32-azahexatriacontan-36-yl)-3, 8, 11, 16-tetraazaicos-18-enedioate”, for which the step yield (late stage modification step) came out at 36%.

For the setting “late stage modification step”, “2, 5-dioxopyrrolidin-1-yl (2S, 5S, 8S, 11S)-16-(2, 5-dioxo-2, 5-dihydro-1H-pyrrol-1-yl)-11-(3-methoxy-3-oxopropyl)-2, 5, 8-trimethyl-4, 7, 10, 13-tetraoxo-3, 6, 9, 12-tetraazahexadecanoate” came in with a step yield of 100%.

For “2, 5-dioxopyrrolidin-1-yl (S)-(S)-(S)-(37-(4-(2, 5-dioxo-2, 5-dihydro-1H-pyrrol-1-yl)butanamido)-31, 38-dioxo-2, 5, 8, 11, 14, 17, 20, 23, 26, 29-decaoxa-32, 39-diazatritetracontan-43-oyl)glycylglycylglycinate”, the step yield (late stage modification step) is on record as 99%.

“(1R, 3R)-1-(4-(((R)-5-amino-1-(3-((37S, 40S, 43S)-37-(4-(2, 5-dioxo-2, 5-dihydro-1H-pyrrol-1-yl)butanamido)-40-isopropyl-43-methyl-31, 38, 41-trioxo-2, 5, 8, 11, 14, 17, 20, 23, 26, 29-decaoxa-32, 39, 42-triazatetratetracontan-44-amido)-4-hydroxyphenyl)-5-oxopentan-2-yl)carbamoyl)thiazol-2-yl)-3-((2S, 3S)-2-(2-(dimethylamino)-2-methylpropanamido)-N, 3-dimethylpentanamido)-4-methylpentyl acetate” returned a step yield (coupling step) of 93%.

In turn, “(2S,3S)-2,3-bis(2,5-dioxo-2,5-dihydro-1H-pyrrol-1-yl)-N1,N4-bis((S)-37-((2-((2-((2-((2-(((1S,9S)-9-ethyl-5-fluoro-9-hydroxy-4-methyl-10,13-dioxo-1,2,3,9,10,12,13,15-octahydrobenzo[de]pyrano[3′,4′:6,7]indolizino[1,2-b]quinolin-1-yl)amino)-2-oxoethyl)amino)-2-oxoethyl)amino)-2-oxoethyl)amino)-2-oxoethyl)carbamoyl)-31,39-dioxo-2,5,8,11,14,17,20,23,26,29-decaoxa-32,38-diazadotetracontan-42-yl)succinamide” gave a conjugation yield of 47% yield.

The substance “(2S,3S)-2,3-bis(2,5-dioxo-2,5-dihydro-1H-pyrrol-1-yl)-N1,N4-bis((S)-37-(((4S,7S,10S,13S)-1-((S)-4-ethyl-8-fluoro-4-hydroxy-9-methoxy-3,14-dioxo-3,4,12,14-tetrahydro-1H-pyrano[3′,4′:6,7]indolizino[1,2-b]quinolin-11-yl)-4,7,10-trimethyl-3,6,9,12-tetraoxo-2,5,8,11-tetraazatetradecan-13-yl)carbamoyl)-31,39-dioxo-2,5,8,11,14,17,20,23,26,29-decaoxa-32,38-diazadotetracontan-42-yl)succinamide” registered a conjugation yield of 70% yield.

“(2S,3S)-2,3-bis(2,5-dioxo-2,5-dihydro-1H-pyrrol-1-yl)-N1,N4-bis((S)-37-(((S)-1-(((S)-1-(((S)-1-(((S)-1-(4-(((S)-4-ethyl-8-fluoro-4-hydroxy-9-methoxy-3,14-dioxo-3,4,12,14-tetrahydro-1H-pyrano[3′,4′:6,7]indolizino[1,2-b]quinolin-11-yl)methyl)piperazin-1-yl)-1-oxopropan-2-yl)amino)-1-oxopropan-2-yl)amino)-1-oxopropan-2-yl)amino)-1-oxopropan-2-yl)carbamoyl)-31,39-dioxo-2,5,8,11,14,17,20,23,26,29-decaoxa-32,38-diazadotetracontan-42-yl)succinamide”: the conjugation yield worked out at 71% yield.

Substance “(2S,3S)-2,3-bis(2,5-dioxo-2,5-dihydro-1H-pyrrol-1-yl)-N1,N4-bis((S)-37-(((S)-1-(((S)-1-(((S)-1-(((S)-1-(((1S,9S)-9-ethyl-5-fluoro-9-hydroxy-4-methyl-10,13-dioxo-1,2,3,9,10,12,13,15-octahydrobenzo[de]pyrano[3′,4′:6,7]indolizino[1,2-b]quinolin-1-yl)amino)-1-oxopropan-2-yl)amino)-1-oxopropan-2-yl)amino)-1-oxopropan-2-yl)amino)-1-oxopropan-2-yl)carbamoyl)-31,39-dioxo-2,5,8,11,14,17,20,23,26,29-decaoxa-32,38-diazadotetracontan-42-yl)succinamide” gave a conjugation yield of 67% yield.

Under “late stage modification step”, “(2S,4R)-4-(2-((6S,9R,11R)-9-isopropyl-2,3,3,8-tetramethyl-13-(4-nitrophenoxy)-4,7,13-trioxo-6-propyl-12-oxa-2,5,8-triazatridecan-11-yl)thiazole-4-carboxamido)-2-methyl-5-phenylpentanoic acid” showed a step yield of 72%.

Turning to “(2S,4R)-4-((tert-butoxycarbonyl)amino)-5-(3-((S)-37-(4-(2,5-dioxo-2,5-dihydro-1H-pyrrol-1-yl)butanamido)-31,38,43-trioxo-2,5,8,11,14,17,20,23,26,29-decaoxa-32,39,44-triazahexatetracontanamido)-4-hydroxyphenyl)-2-methylpentanoic acid”, where the note is “coupling step”, the step yield came to 50%.

Under “late stage modification step”, “(2S,5S,8S,16S,17S,25S,28S,31S)-16,17-bis(2,5-dioxo-2,5-dihydro-1H-pyrrol-1-yl)-5,28-diisopropyl-2,31-dimethyl-4,7,10,15,18,23,26,29-octaoxo-” came in with a step yield of 50% yield.

“(2S,5S,13S,14S,22S,25S)-13,14-bis(2,5-dioxo-2,5-dihydro-1H-pyrrol-1-yl)-2,25-diisopropyl-4,7,12,15,20,23-hexaoxo-5,22-bis(31-oxo-2,5,8,11,14,17,20,23,26,29-decaoxa-32-azahexatriacontan-36-yl)-3,6,11,16,21,24-hexaazahexacosanedioic acid” had a step yield (late stage modification step) of 48% yield.

“(2S,5S,13S,14S,22S,25S)-13,14-bis(2,5-dioxo-2,5-dihydro-1H-pyrrol-1-yl)-2,25-dimethyl-4,7,12,15,20,23-hexaoxo-5,22-bis(31-oxo-2,5,8,11,14,17,20,23,26,29-decaoxa-32-azahexatriacontan-36-yl)-3,6,11,16,21,24-hexaazahexacosanedioic acid” showed a step yield (late stage modification step) of 100% yield.

As for “(2S, 4R)-4-(2-((6S, 9R, 11R)-6-((S)-sec-butyl)-9-isopropyl-2, 3, 3, 8-tetramethyl-4, 7, 13-trioxo-12-oxa-2, 5, 8-triazatetradecan-11-yl)thiazole-4-carboxamido)-5-(4-hydroxy-3-nitrophenyl)-2-methylpentanoic acid”, where the note is “coupling step”, the step yield was 80%.

Under “late stage modification step”, “(2S, 4R)-4-amino-5-(3-((6S, 9S, 12S, 15S)-6-(4-(2, 5-dioxo-2, 5-dihydro-1H-pyrrol-1-yl)butanamido)-9, 12, 15-trimethyl-3, 7, 10, 13-tetraoxo-2-oxa-8, 11, 14-triazahexadecan-16-amido)-4-hydroxyphenyl)-2-methylpentanoic acid” showed a step yield of 100%.

For the substance “(2S, 4R)-4-amino-5-(3-((S)-37-(4-(2, 5-dioxo-2, 5-dihydro-1H-pyrrol-1-yl)butanamido)-31, 38, 43, 46-tetraoxo-2, 5, 8, 11, 14, 17, 20, 23, 26, 29-decaoxa-32, 39, 44, 47-tetraazanonatetracontan-49-amido)-4-hydroxyphenyl)-2-methylpentanoic acid”, under “late stage modification step”, the step yield is on record as 100%.

“(4R,4′R)-5,5′-((((10S,18S,19S,27S)-18,19-bis(2,5-dioxo-2,5-dihydro-1H-pyrrol-1-yl)-4,9,12,17,20,25,28,33-octaoxo-10,27-bis(31-oxo-2,5,8,11,14,17,20,23,26,29-decaoxa-32-azahexatriacontan-36-yl)-3,8,11,16,21,26,29,34-octaazahexatriacontanedioyl)bis(azanediyl))bis(4-hydroxy-3,1-phenylene))bis(4-(2-((3S,6S,9R,11R)-6-((S)-sec-butyl)-3,9-diisopropyl-2,8-dimethyl-4,7-dioxo-12-oxa-2,5,8-triazatridecan-11-yl)thiazole-4-carboxamido)pentanoic acid)” returned a conjugation yield of 45%.

Regarding “(4R,4′R)-5,5′-((((10S,18S,19S,27S)-18,19-bis(2,5-dioxo-2,5-dihydro-1H-pyrrol-1-yl)-4,9,12,17,20,25,28,33-octaoxo-10,27-bis(31-oxo-2,5,8,11,14,17,20,23,26,29-decaoxa-32-azahexatriacontan-36-yl)-3, 8,11,16,21,26,29,34-octaazahexatriacontanedioyl)bis(azanediyl))bis(4-hydroxy-3,1-phenylene))bis(4-(2-((6S,9R,11R)-6-((S)-sec-butyl)-9-isopropyl-2,3,3,8-tetramethyl-4,7,13-trioxo-12-oxa-2,5,8-triazatetradecan-11-yl)thiazole-4-carboxamido)pentanoic acid)”, the conjugation yield is 57%.

In turn, “(4R,4′R)-5,5′-((((11S,19S,20S,28S)-19,20-bis(2,5-dioxo-2,5-dihydro-1H-pyrrol-1-yl)-4,7,10,13,18,21,26,29,32,35-decaoxo-11,28-bis(31-oxo-2,5,8,11,14,17,20,23,26,29-decaoxa-32-azahexatriacontan-36-yl)-3,6,9,12,17,22,27,30,33,36-decaazaoctatriacontanedioyl)bis(azanediyl))bis(4-hydroxy-3,1-phenylene))bis(4-(2-((6S,9R,11R)-6-((S)-sec-butyl)-9-isopropyl-2,3,3, 8-tetramethyl-4,7,13-trioxo-12-oxa-2,5,8-triazatetradecan-11-yl)thiazole-4-carboxamido)pentanoic acid)” came in with a conjugation yield of 13% yield.

For “(4R,4′R)-5,5′-((((14S,22S,23S,31S)-22,23-bis(2,5-dioxo-2,5-dihydro-1H-pyrrol-1-yl)-4,7,10,13,16,21,24,29,32,35,38,41-dodecaoxo-14,31-bis(31-oxo-2,5,8,11,14,17,20,23,26,29-decaoxa-32-azahexatriacontan-36-yl)-3,6,9,12,15,20,25,30,33,36,39,42-dodecaazatetratetracontanedioyl)bis(azanediyl))bis(4-hydroxy-3,1-phenylene))bis(4-(2-((6S,9R,11R)-6-((S)-sec-butyl)-9-isopropyl-2,3,3,8-tetramethyl-4,7,13-trioxo-12-oxa-2,5,8-triazatetradecan-11-yl)thiazole-4-carboxamido)pentanoic acid)”, the conjugation yield is on record as 75% yield.

The values are drawn from patent US20260158153A1 (priority 2021, published 2026).
